Columns and labels:
[1] = tested on: Bacillus subtilis 168; test: Agar plate inhibition halo test of active compound-loaded nanourea dispersions; format: cell-based
Description: (§1) Cells of Staphylococcus epidermidis 498 and Bacillus subtilis 168 are plated out on agar plates such that, after incubation overnight at 37° C., they have formed a visible cell lawn on the agar. The agar contained a complex nutrient-rich medium (Müller-Hinton medium, OD600=0.1 set; 200 μl plated out per plate, dried at room temperature for one hour). A hole was in each case punched in the centre of the plates. Active compound-containing nanourea dispersions (100 μl), which had been prepared analogously to Example 2 and in which the active compound was present exclusively in bound form, were filled into this hole. After incubation overnight, the agar was examined for diffusing antibiotic active compounds in that the missing cell lawn around the punched-out hole can be seen (“inhibition halos”). These inhibition halos were compared with an agar plate without further additives and an agar plate with an active compound-free nanourea dispersion.

[2] = tested on: Staphylococcus epidermidis 498; test: as above; format: cell-based
Description: as §1

## CCCCCCCCCCCCCCCC[n+]1ccccc1.[Cl-] [1-Cetylpyridinium chloride]
[1]
  Inhibition halo (diameter minus the diameter of the punched-out hole): 200 μm
[2]
  Inhibition halo (diameter minus the diameter of the punched-out hole): 300 μm

From patent US20080044474A1, “Dispersions of nanoureas comprising biologically active compounds” (Bayer MaterialScience AG, priority 2006, published 2008)
